Source: US20230365651A1
No constants are given. Whether binding was seen depends on the method and setting. A result given as binding can be weak or reduced; the word gives no strength.

Target: HLA-B*44:02 (human)
Assay: UV peptide exchange, anti-b2m ELISA

binding, binds:
AEFAKKQPWW [… (SEQ ID NO: 188)]
KEFLFNMY [KEFLFNMY (SEQ ID NO: 189)]
YEVARILNL [… (SEQ ID NO: 190)]
EEDAALFKAW [… (SEQ ID NO: 191)]
YEFKFPNRL [… (SEQ ID NO: 192)]
LEAQQEAL [LEAQQEAL (SEQ ID NO: 193)]
KEVDPTSHSY [… (SEQ ID NO: 194)]
AEDKRHYSV [… (SEQ ID NO: 195)]
REMPGGPVW [… (SEQ ID NO: 196)]
AEVLLPRLV [… (SEQ ID NO: 197)]
QEAARAAL [QEAARAAL (SEQ ID NO: 198)]
REIDESLIFY [… (SEQ ID NO: 199)]
AESIPTVSF [… (SEQ ID NO: 200)]
AETILTFHAF [… (SEQ ID NO: 201)]
HESEATASW [… (SEQ ID NO: 202)]
IEHSTQAQDTL [… (SEQ ID NO: 203)]
RETSTSEETSL [… (SEQ ID NO: 204)]
SEITRIEM [SEITRIEM (SEQ ID NO: 205)]
SESVTSRTSY [… (SEQ ID NO: 206)]
TEARATSDSW [… (SEQ ID NO: 207)]
TEVSRTEAI [… (SEQ ID NO: 208)]
TEVSRTEL [TEVSRTEL (SEQ ID NO: 209)]
VEAADIFQNF [… (SEQ ID NO: 210)]
EEKVFPSPLW [… (SEQ ID NO: 211)]
MEQKQLQKRF [… (SEQ ID NO: 212)]
KESIPRWYY [… (SEQ ID NO: 213)]
VEQTRAGSLL [… (SEQ ID NO: 214)]
REASGLLSL [… (SEQ ID NO: 396)]
REGDTVQLL [… (SEQ ID NO: 397)]
SFEQVVNELF [… (SEQ ID NO: 398)]
RELLHLVTL [… (SEQ ID NO: 399)]
GEIEIHLL [GEIEIHLL (SEQ ID NO: 400)]
RELANDELIL [… (SEQ ID NO: 402)]
EEAQWVRKY [… (SEQ ID NO: 403)]
NEAIMHQY [NEAIMHQY (SEQ ID NO: 404)]
NEIWTHSY [NEIWTHSY (SEQ ID NO: 405)]
EDGRLVIEF [… (SEQ ID NO: 406)]
AEHEGVSVL [… (SEQ ID NO: 407)]
LEKALQVF [LEKALQVF (SEQ ID NO: 408)]
REFVLSKGDAGL [… (SEQ ID NO: 409)]
SEDPSKLEA [… (SEQ ID NO: 410)]
LELPPILVY [… (SEQ ID NO: 411)]
QEILTQVKQ [… (SEQ ID NO: 412)]
IEALSGKIEL [… (SEQ ID NO: 413)]
EDAALFKAW [… (SEQ ID NO: 414)]
REEDAALFKAW [… (SEQ ID NO: 415)]
SEEETRVVF [… (SEQ ID NO: 416)]
AEHFSMIRA [… (SEQ ID NO: 417)]
FEDAQGHIW [… (SEQ ID NO: 418)]
HEFGHVLGL [… (SEQ ID NO: 419)]
FESHSTVSA [… (SEQ ID NO: 420)]
GEPATTVSL [… (SEQ ID NO: 421)]
SETTFSLIF [… (SEQ ID NO: 422)]
SEVPTGTTA [… (SEQ ID NO: 423)]
TEFPLFSAA [… (SEQ ID NO: 424)]
